Values from PubChem BioAssay AID504793 (Drosophila RNAi Screening Center, 2011)

- Aim: 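Genes required for cells to halt at G2/M after double-strand DNA breaks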 (primary screen)
- System: Drosophila S2R+ cells
- Knock-down reagent: long dsRNA against Drosophila genes, about 0.25 µg dsRNA per well
- Timing: 4 days of dsRNA, then 4 hours of drug before read-out
- Conditions: doxorubicin 0.5 µM for 4 hours to cause double-strand breaks, in cells also given a low, harmless dose of dsRNA against nbs to sensitise the assay
- Read-out: 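Mitotic index as the number of phospho-histone H3-positive cells in each well following doxorubicin, given as raw counts without normalisation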
- Scale: mitotic cells: higher = more cells in mitosis, weaker G2 arrest
- Rule for the call: 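a call needs confirmation in secondary tests, with other dsRNAs and a check of mitotic timing without damage, not just a high primary count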
- Meaning of the calls: active = confirmed in follow-up tests; inactive = not confirmed
The screen tested about 23,000 reagents; this is a random part of those with a known target gene and a result. Over the whole deposit, 62 (0.27%) got an active call. 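Calls come from follow-up tests whose scores are not deposited, so confirmed genes may have low counts here; counts are not normalised per plate.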 Raw values vary from plate to plate and are shown uncorrected. Entries without a mark were called inactive. A plus sign joins genes that one reagent is predicted to hit.

The first 2 records, ahead of the listing:
| gene | dsRNA | mitotic cells, replicate 1 |
| --- | --- | --- |
| SrpRbeta | DRSC21668 | 6 |
| SrpRbeta | DRSC27853 | 8 |

Main list, from the first entry:
| gene | dsRNA | mitotic cells, replicate 1 |
| --- | --- | --- |
| SrpRbeta | DRSC21668 | 6 |
| SrpRbeta | DRSC27853 | 8 |
| Adf1 | DRSC04941 | 15 |
| Adf1 | DRSC04963 | 11 |
| Rrp6 | DRSC16223 | 8 |
| CG11563 | DRSC14327 | 12 |
| CG14483 | DRSC06455 | 8 |
| Stoml2 | DRSC04326 | 4 |
| Mcm7 | DRSC11219 | 47 (active) |
| Mcm7 | DRSC24311 | 64 (active) |
| CG1999 | DRSC18199 | 12 |
| CG1999 | DRSC29137 | 9 |
| Hsp60C | DRSC03036 | 6 |
| Hsp60C | DRSC29438 | 7 |
| CG10257 | DRSC05985 | 9 |
| CG14851 | DRSC14975 | 4 |
| CG14851 | DRSC21500 | 7 |
| CG14851 | DRSC27841 | 8 |
| Mpcp2 | DRSC11226 | 6 |
| smal | DRSC02318 | 16 |
| smal | DRSC02319 | 10 |
| smal | DRSC02320 | 1 |
| smal | DRSC02504 | 3 |
| smal | DRSC22866 | 8 |
| smal | DRSC26352 | 7 |
| Chd64 | DRSC08649 | 14 |
| Chd64 | DRSC28823 | 2 |
| Phb2 | DRSC06512 | 9 |
| boi | DRSC18425 | 3 |
| boi | DRSC18598 | 7 |
| boi | DRSC25851 | 5 |
| Dph3 | DRSC14923 | 6 |
| Dph3 | DRSC25545 | 10 |
| Sbf | DRSC16852 | 3 |
| Sbf | DRSC27418 | 9 |
| CG31898 | DRSC01019 | 7 |
| Bruce | DRSC16015 | 5 |
| CG42304 + Snup | DRSC08276 | 5 |
| CG42304 + Snup | DRSC08277 | 4 |
| CG42304 + Snup | DRSC22781 | 5 |
| CG42304 + Snup | DRSC23772 | 5 |
| CG33460 | DRSC05570 | 2 |
| CG31371 | DRSC15079 | 8 |
| PpD3 | DRSC16796 | 4 |
| CG42613 | DRSC13332 | 8 |
| CG42613 | DRSC14769 | 11 |
| CG42613 | DRSC15802 | 11 |
| CG42613 | DRSC25089 | 10 |
